According to publication PMC11209018:
No constants are given. Whether binding was seen depends on the method and setting. Binding seen in cells or lysates may run through a third protein. Some binding calls cover weakened binding; strength is not graded here. Sequences can lack the tags named with a protein.

Key:
FOXK2-Flag Δ428–478 = target: T1, FOXK2-Flag Δ428–478 (UniProt Q01167); test: co-IP; cells (BEAS-2B by the legend, HEK-293T by the methods) cotransfected for 48 h with FBXO24-V5 and FOXK2-Flag Wt or deletion plasmids; lysis Buffer A (PBS, 0.2% SDS, 0.05% Triton); anti-Flag M2 magnetic beads, RT, 30 min; immunoblot for FBXO24
T1 sequence: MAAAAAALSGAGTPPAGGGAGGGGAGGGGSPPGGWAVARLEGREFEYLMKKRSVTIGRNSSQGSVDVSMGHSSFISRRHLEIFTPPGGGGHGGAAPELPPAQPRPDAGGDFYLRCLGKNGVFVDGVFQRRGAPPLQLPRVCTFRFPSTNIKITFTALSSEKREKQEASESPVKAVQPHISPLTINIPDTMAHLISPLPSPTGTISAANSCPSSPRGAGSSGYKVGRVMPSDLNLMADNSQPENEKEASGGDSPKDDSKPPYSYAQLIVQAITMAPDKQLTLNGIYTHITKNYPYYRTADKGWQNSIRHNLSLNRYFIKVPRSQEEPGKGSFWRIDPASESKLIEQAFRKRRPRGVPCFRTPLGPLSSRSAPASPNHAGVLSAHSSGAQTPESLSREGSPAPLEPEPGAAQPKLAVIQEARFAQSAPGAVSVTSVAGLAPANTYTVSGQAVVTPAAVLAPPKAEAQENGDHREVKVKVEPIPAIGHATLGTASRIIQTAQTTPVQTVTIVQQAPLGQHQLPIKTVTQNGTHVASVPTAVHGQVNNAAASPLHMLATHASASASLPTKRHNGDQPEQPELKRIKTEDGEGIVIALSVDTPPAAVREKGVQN

FOXK2-Flag (Wt) [1] = target: FOXK2-Flag (Wt) (UniProt Q01167); test: as above
FOXK2-Flag Δ155–203 = target: T2, FOXK2-Flag Δ155–203 (UniProt Q01167); test: as above
T2 sequence: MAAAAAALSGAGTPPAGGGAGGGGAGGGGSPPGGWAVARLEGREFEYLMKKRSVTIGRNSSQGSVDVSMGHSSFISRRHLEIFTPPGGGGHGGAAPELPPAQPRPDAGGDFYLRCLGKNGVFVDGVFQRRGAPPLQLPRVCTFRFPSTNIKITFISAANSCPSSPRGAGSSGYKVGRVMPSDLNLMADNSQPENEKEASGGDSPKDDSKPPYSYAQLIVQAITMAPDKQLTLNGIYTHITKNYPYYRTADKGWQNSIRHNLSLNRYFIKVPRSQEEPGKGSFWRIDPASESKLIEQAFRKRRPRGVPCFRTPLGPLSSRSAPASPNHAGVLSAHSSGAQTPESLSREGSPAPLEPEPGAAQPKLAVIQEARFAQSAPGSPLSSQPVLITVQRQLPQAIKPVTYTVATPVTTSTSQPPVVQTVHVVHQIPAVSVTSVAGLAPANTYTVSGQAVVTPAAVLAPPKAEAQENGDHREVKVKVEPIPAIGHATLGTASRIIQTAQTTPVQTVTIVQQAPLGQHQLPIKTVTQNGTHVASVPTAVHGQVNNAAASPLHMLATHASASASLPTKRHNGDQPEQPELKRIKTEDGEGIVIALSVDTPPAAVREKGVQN

FOXK2-Flag (Wt) [2] = target: FOXK2-Flag (Wt) (UniProt Q01167); test: co-IP; BEAS-2B cells cotransfected with FOXK2-Flag and FBXO24-V5; Flag beads pull down FOXK2-Flag; immunoprecipitants probed for SCF components by immunoblot (n = 3)

binding (FOXK2-Flag Δ428–478): binds | binding (FOXK2-Flag (Wt) [1]): binds | binding (FOXK2-Flag Δ155–203): binds | binding (FOXK2-Flag (Wt) [2]): binds
B1: FBXO24-V5 (protein, UniProt O75426 1-580)
chain: MGEKAVPLLRRRRVKRSCPSCGSELGVEEKRGKGNPISIQLFPPELVEHIISFLPVRDLVALGQTCRYFHEVCDGEGVWRRICRRLSPRLQDQGSGVRPWKRAAILNYTKGLYFQAFGGRRRCLSKSVAPLLAHGYRRFLPTKDHVFILDYVGTLFFLKNALVSTLGQMQWKRACRYVVLCRGAKDFASDPRCDTVYRKYLYVLATREPQEVVGTTSSRACDCVEVYLQSSGQRVFKMTFHHSMTFKQIVLVGQETQRALLLLTEEGKIYSLVVNETQLDQPRSYTVQLALRKVSHYLPHLRVACMTSNQSSTLYVTDQGGVYFEVHTPGVYRDLFGTLQAFDPLDQQMPLALSLPAKILFCALGYNHLGLVDEFGRIFMQGNNRYGQLGTGDKMDRGEPTQVCYLQRPITLWCGLNHSLVLSQSSEFSKELLGCGCGAGGRLPGWPKGSASFVKLQVKVPLCACALCATRECLYILSSHDIEQHAPYRHLPASRVVGTPEPSLGARAPQDPGGMAQACEEYLSQIHSCQTLQDRTEKMKEIVGWMPLMAAQKDFFWEALDMLQRAEGGGGGVGPPAPET
